Laboratory results reported in US20220133889A1.
These are yes or no findings as the source states them, for the method shown. Some results given as binding are weak or reduced against the parent protein; the word gives no strength.

Columns and labels:
[1] = biological target: cynomolgus TIM-3 expressed on transfected cells (cynomolgus); assay: flow cytometry on cells transfected with cynoTIM-3
[2] = biological target: cynomolgus TIM-3 expressed on transfected cells (cynomolgus); assay: flow cytometry on transfected cells
[3] = biological target: cynomolgus TIM-3 expressed on transfected cells (cynomolgus); assay: binding curves on transfected cells (FIGS. 2A-2E)

Measured: binding

B1: ABTIM3 (antibody, V domains shown)
VH: QVQLQQPGAELVKPGASVKMSCKASGYTFTSYNMHWIKQTPGQGLEWIGDIYPGNGDTSYNQKFKGKATLTADKSSSTVYMQLSSLTSEDSAVYYCARVGGAFPMDYWGQGTSVTVSS
VL: DIVLTQSPASLAVSLGQRATISCRASESVEYYGTSLMQWYQQKPGQPPKLLIYAASNVESGVPARFSGSGSGTDFSLNIHPVEEDDIAIYFCQQSRKDPSTFGGGTKLEIK
binds: [1] | [2] | [3]
